According to paper PMC6503876:
Results are given in words; binding and its absence hold for the method and conditions named. In cells and extracts the contact can be indirect. A result given as binding can be weak or reduced; the word gives no strength.

Target: perilipin-5 (Pelodiscus sinensis (endogenous in liver))
Experiment: co-IP; liver homogenates of hibernating and non-hibernating turtles lysed in Co-IP lysis buffer on ice; immunoprecipitating antibodies and protein A/G beads, 4 °C overnight; beads washed with lysis buffer 3-4 times; SDS-PAGE and western blotting

binding: binds
B1: adipose triglyceride lipase (enzyme, UniProt K7FV84 1-484)
chain: AMFPLDAPWSISFAGCGFLGVYHIENCCCLQEHAPFLVANAKTIYGASAGALTATALVTGACLGEAGANIIQVSKEARKRFLGPLHPSFNLVKIIRTCLYKTLPDNGHEVARGRLGISLTRVSDGENVILSEFNSKEELIQACVCSTFIPVYCGLIPPSLQGVRYVDGGISDNLPQYELKNTITVSPFSGESDICPRDSSTNIHELRVTNTSIQFNLRNLYRLSKALFPPEPQVLRDMCKQGYRDALHFLKKNGLLHRPEPSRPLLAIENSSGARDPEEEEKSAEDQLRENAALAAVEDHIFEHLPPRLNQALLEACTERRGLLVGITNLLPVRLASAMMIPYTLPVESAVSFTVRLLEWLPDVPEDIRWMKEQTSKVCNYLMREAKKKLGSHLSARLYYHFELRRTQSLPIPLASTYGEALPQWVRSNLSLTDVKTKWEEYQRQLMLGLFCINVDMQASIFPSDGLQMRLSPADRVQESLPLF
